No constants are given. Whether binding was seen depends on the method and setting. Binding seen in cells or lysates may run through a third protein. These calls come from enrichment with a bait or labelling near it, and not all partners need be listed.

Chains of the proteins cited; added tags and fusions are not shown.
UniProt Q6P6C2: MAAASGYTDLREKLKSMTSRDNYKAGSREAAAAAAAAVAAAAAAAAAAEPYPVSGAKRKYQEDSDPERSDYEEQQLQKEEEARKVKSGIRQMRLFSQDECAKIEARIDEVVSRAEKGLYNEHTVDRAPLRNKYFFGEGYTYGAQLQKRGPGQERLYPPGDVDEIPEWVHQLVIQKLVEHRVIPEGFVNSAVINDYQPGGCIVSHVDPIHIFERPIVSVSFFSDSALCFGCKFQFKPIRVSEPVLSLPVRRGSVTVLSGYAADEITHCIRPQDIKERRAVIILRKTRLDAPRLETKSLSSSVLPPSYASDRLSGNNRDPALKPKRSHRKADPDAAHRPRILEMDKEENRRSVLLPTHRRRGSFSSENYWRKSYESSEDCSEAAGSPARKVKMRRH
UniProt Q9P289: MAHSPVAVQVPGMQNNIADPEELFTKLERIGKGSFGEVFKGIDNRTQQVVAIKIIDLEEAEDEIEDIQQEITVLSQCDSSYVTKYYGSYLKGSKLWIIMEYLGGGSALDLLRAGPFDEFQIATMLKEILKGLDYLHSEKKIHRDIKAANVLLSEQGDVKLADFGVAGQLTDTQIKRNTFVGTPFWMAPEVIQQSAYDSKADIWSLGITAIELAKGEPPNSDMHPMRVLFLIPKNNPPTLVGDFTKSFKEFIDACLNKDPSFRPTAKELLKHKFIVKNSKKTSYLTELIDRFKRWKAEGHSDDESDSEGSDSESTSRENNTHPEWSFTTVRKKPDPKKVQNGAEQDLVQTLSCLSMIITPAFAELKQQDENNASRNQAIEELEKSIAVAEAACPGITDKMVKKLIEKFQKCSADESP

This passage reports binding results from article PMC11840735.

This assay concerns the target endogenous ALKBH5 of GSCs (human (endogenous in patient-derived GSCs)) (UniProt Q6P6C2). In words: affinity purification with mass spectrometry; proteins immunoprecipitated with an antibody specific to ALKBH5 in GSCs (GSC 83), analysed by mass spectrometry.

For the substance “endogenous MST4 of GSCs (from UniProt Q9P289 1-416) (enzyme)”, the binding result was “binds”.
